Test results taken from the supplement of paper PMC10849652.
Some of the results follow.

The chains behind the UniProt entries cited, without tags or fusion partners. Where a name states a change or a piece, a line headed by the entry shows the natural chain unless it says otherwise.
UniProt Q16774: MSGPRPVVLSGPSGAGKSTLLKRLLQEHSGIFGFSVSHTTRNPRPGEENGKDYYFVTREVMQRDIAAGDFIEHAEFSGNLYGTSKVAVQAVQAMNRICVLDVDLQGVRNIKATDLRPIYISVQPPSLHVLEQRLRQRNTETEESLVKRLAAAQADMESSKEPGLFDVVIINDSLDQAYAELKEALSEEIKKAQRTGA
UniProt P35269, whole entry, looked up: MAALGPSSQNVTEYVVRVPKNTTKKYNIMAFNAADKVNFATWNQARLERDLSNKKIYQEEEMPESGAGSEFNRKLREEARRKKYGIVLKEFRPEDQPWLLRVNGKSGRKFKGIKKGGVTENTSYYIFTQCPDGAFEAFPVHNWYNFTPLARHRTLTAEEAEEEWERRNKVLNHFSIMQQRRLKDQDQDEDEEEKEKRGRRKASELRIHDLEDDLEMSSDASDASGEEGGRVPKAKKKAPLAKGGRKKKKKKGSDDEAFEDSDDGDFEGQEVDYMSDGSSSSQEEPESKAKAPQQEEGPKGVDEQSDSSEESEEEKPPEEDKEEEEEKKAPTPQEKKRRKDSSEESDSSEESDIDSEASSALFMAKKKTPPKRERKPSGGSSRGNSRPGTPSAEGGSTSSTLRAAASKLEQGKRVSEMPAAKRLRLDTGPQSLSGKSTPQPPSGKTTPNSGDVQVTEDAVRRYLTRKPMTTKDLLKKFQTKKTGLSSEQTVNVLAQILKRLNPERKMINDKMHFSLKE
UniProt P41594, whole entry, looked up: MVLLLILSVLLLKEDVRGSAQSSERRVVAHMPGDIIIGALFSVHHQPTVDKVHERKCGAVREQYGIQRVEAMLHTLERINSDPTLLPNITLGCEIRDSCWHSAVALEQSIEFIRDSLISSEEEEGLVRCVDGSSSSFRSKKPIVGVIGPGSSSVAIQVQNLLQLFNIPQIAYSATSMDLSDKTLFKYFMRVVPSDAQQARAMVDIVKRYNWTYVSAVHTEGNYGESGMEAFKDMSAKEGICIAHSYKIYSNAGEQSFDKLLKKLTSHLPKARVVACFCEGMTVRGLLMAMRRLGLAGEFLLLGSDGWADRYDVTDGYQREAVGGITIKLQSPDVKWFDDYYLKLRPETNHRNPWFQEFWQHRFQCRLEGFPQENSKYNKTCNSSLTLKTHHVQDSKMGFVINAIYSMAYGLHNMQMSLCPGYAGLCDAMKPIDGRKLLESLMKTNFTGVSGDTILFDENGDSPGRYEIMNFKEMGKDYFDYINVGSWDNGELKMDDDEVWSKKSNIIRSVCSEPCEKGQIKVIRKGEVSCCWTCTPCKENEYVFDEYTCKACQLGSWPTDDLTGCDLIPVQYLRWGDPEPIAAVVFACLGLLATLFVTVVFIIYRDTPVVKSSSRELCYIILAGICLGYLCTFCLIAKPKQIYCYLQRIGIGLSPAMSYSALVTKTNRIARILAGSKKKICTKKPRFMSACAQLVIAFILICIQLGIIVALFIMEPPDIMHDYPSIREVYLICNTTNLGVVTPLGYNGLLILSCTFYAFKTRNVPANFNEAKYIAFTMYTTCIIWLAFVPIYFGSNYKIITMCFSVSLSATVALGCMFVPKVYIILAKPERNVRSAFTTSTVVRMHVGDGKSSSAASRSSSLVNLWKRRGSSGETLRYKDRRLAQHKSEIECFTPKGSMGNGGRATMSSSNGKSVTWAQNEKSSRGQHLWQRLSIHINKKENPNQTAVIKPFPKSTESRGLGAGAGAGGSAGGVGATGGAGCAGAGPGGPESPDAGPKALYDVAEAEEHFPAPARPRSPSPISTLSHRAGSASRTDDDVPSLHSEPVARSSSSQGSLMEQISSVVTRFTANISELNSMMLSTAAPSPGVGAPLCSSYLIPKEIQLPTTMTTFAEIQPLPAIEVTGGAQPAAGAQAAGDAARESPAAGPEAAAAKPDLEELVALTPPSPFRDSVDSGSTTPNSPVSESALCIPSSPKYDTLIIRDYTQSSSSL
UniProt Q9Y5Q9: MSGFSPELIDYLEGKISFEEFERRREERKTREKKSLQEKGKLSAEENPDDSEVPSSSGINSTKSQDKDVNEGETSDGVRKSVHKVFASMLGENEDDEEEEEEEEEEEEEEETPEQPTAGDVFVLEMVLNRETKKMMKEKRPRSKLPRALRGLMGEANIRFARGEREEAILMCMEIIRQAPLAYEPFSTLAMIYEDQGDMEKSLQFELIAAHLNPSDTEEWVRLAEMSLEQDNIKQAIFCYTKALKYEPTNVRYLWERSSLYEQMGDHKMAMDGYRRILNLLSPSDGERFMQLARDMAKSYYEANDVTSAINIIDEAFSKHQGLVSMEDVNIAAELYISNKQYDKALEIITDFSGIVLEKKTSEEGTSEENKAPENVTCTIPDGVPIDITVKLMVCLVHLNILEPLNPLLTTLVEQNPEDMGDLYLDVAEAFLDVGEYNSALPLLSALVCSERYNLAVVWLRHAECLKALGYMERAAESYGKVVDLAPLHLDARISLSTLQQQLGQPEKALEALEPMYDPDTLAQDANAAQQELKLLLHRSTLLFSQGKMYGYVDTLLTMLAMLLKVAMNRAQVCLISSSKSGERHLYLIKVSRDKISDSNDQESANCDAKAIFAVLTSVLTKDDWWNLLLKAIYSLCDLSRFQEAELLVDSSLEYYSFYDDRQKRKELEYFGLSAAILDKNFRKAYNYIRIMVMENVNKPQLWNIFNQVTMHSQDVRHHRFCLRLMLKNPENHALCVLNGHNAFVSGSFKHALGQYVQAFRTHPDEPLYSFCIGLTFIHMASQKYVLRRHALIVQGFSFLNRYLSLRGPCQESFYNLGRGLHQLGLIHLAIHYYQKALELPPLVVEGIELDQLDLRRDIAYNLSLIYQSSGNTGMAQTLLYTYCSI
UniProt Q7Z4V5: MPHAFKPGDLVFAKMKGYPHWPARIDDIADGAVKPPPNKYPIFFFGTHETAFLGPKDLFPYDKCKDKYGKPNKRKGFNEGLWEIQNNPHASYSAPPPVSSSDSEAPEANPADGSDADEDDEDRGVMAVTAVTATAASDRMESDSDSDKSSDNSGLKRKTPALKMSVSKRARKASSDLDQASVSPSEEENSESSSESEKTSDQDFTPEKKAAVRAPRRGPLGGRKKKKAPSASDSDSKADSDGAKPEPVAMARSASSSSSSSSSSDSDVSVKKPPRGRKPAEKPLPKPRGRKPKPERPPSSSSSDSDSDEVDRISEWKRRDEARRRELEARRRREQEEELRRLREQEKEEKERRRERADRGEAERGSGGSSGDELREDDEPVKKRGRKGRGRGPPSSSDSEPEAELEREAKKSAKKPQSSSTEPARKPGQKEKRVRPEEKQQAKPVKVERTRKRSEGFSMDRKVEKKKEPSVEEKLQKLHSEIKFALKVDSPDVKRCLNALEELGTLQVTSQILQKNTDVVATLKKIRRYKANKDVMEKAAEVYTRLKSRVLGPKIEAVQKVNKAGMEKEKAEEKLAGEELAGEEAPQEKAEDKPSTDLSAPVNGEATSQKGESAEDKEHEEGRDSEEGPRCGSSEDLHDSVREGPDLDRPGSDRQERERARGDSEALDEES
UniProt Q9BQ67, whole entry, looked up: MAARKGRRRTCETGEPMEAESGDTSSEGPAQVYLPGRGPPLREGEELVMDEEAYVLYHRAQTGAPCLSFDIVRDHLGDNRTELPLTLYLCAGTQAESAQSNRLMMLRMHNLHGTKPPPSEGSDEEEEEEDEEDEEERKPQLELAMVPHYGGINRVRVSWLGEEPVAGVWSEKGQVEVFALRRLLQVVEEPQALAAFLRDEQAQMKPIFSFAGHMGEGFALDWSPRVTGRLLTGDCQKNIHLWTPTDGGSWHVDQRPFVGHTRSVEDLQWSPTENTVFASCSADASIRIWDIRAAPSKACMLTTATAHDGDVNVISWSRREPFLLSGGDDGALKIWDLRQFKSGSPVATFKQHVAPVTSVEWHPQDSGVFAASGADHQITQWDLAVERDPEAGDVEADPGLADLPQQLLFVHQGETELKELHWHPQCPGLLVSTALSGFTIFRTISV
UniProt Q9BSH5: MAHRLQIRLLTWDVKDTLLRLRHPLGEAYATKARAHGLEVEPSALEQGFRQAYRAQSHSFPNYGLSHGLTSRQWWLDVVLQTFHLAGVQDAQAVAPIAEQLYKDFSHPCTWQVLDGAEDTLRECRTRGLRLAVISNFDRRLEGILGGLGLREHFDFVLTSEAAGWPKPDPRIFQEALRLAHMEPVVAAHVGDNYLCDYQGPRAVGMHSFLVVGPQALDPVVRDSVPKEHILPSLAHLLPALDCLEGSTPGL
UniProt Q13547, whole entry, looked up: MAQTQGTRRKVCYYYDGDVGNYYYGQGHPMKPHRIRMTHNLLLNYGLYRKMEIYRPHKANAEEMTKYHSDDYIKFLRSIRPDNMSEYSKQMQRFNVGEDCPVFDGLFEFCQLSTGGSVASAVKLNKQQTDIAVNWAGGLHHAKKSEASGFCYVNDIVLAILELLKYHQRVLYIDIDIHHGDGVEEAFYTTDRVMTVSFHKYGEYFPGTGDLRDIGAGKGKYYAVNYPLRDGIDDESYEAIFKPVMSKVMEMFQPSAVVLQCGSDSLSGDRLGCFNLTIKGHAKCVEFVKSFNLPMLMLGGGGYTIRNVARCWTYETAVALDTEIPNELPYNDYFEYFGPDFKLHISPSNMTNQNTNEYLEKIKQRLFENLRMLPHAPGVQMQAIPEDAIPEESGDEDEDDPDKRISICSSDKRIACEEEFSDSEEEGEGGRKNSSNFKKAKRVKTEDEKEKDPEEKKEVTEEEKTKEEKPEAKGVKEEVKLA

Assays:
Assay in all cases: log2 fold change, soluble protein after heating vs DMSO (PISA); higher = thermal stabilisation; K562 lysate, 10 uM; active = over 0.2 and 3.5 SD of the protein, either way, in both replicates (recomputed)
ibrutinib = compound: C=CC(=O)N1CCC[C@@H](n2nc(-c3ccc(Oc4ccccc4)cc3)c3c(N)ncnc32)C1 [ibrutinib]
Method in brief: (§1)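 Pellets of K562 cells were dounce-homogenised in PBS pH 7.4 with 1 mM MgCl2, and the crude extract was held at 1 mg/mL protein for a 30 min treatment with 10 μM compound. Aliquots were heated for 3 min over 48°C-58°C and pooled before NP-40 was added to 0.5% at 4°C. The supernatant from 21,000xg for 90 min was quantified by TMTpro 16plex LC-MS/MS with channel sums equalised. Values are reported from duplicates as log-two fold change in thermal stability relative to solvent controls.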

[1] = compound: CC(=O)c1cnc2ccc(-c3cc(Cl)c(O)c(Cl)c3)nc2c1N[C@H]1CC[C@H](CN(C)C)CC1
Method in brief: as §1

ralimetinib = compound: CC(C)(C)Cn1c(N)nc2ccc(-c3[nH]c(C(C)(C)C)nc3-c3ccc(F)cc3)nc21 [ralimetinib]
Method in brief: as §1

[2] = compound: CC(C)(O)CC(=O)NCCn1ccc2ncnc(Nc3ccc(Oc4cccc(C(F)(F)F)c4)c(Cl)c3)c21
Method in brief: as §1

[3] = compound: CC(C)C1=C2N=C(C=C(N2N=C1)NCC3=CC=CC=C3)NCCCCCCN
Method in brief: as §1

[4] = compound: CC1=C(C(CC(=O)N1)C2=CC=C(C=C2)C(F)(F)F)C(=O)NC3=C(C=C4C(=C3)C=NN4)F
Method in brief: as §1

[5] = compound: CC1=C(C2=C(C=C1)C(=O)C3=CC=CC=C3N2CCCN)C
Method in brief: as §1

[6] = compound: CC1=C(C=C(C=C1)NC(=O)C2=CC(=CC=C2)C(C)(C)C#N)NC3=CC4=C(C=C3)N=CN(C4=O)C
Method in brief: as §1

[7] = compound: CC1=C(C=C(C=C1)NC(=O)C2=CC(=CC=C2)N(C)C)NC(=O)C3=CC=C(C=C3)O
Method in brief: as §1

[8] = compound: CC1=CC=C(C=C1)SC2=C3C=C(SC3=CN=C2)C(=O)N
Method in brief: as §1

vemurafenib = compound: CCCS(=O)(=O)Nc1ccc(F)c(C(=O)c2c[nH]c3ncc(-c4ccc(Cl)cc4)cc23)c1F [vemurafenib]
Method in brief: as §1

[9] = compound: CCCS(=O)(=O)Nc1ccc(F)c(C(=O)c2c[nH]c3ncc(Cl)cc23)c1F
Method in brief: as §1

barasertib = compound: CCN(CCCOc1ccc2c(Nc3cc(CC(=O)Nc4cccc(F)c4)[nH]n3)ncnc2c1)CCOP(=O)(O)O [barasertib]
Method in brief: as §1

[10] = compound: CC[C@@H]1C(=O)N(C)c2cnc(Nc3ccc(C(=O)NC4CCN(C)CC4)cc3OC)nc2N1C1CCCC1
Method in brief: as §1

volasertib = compound: CC[C@@H]1C(=O)N(C)c2cnc(Nc3ccc(C(=O)N[C@H]4CC[C@H](N5CCN(CC6CC6)CC5)CC4)cc3OC)nc2N1C(C)C [volasertib]
Method in brief: as §1

[11] = compound: CCn1c(C(=O)N(C2CC2)C2CC2)cc2c3c(ncn3C)c(Nc3cc(C)n(C)n3)nc21
Method in brief: as §1

[12] = compound: CCn1cc(-c2ccnc3[nH]c(-c4cccc(CN(C)C)c4)cc23)c(-c2ccc(NC(=O)N(C)C)cc2)n1
Method in brief: as §1

[13] = compound: CN1CCC(CNc2ccc3ncc(-c4cccc(OC(F)(F)F)c4)n3n2)CC1
Method in brief: as §1

saracatinib = compound: CN1CCN(CCOc2cc(OC3CCOCC3)c3c(Nc4c(Cl)ccc5c4OCO5)ncnc3c2)CC1 [saracatinib]
Method in brief: as §1

sotrastaurin = compound: CN1CCN(c2nc(C3=C(c4c[nH]c5ccccc45)C(=O)NC3=O)c3ccccc3n2)CC1 [sotrastaurin]
Method in brief: as §1

With GUK1 isoform 2 (UniProt Q16774) the log2 fold change (ibrutinib) was inactive: -0.038, the log2 fold change [1] was inactive: 0.009 and the log2 fold change (ralimetinib) was inactive: -0.008. For the same target, the log2 fold change [2] was inactive: -0.037, the log2 fold change [3] was inactive: -0.006 and the log2 fold change [4] was inactive: -0.007. For the same target, the log2 fold change [5] was inactive: 0.036, the log2 fold change [6] was inactive: 0.011 and the log2 fold change [7] was inactive: 0.066. The log2 fold change [8] was inactive: -0.075, the log2 fold change (vemurafenib) was inactive: 0.012 and the log2 fold change [9] was inactive: 0.017. For the same target, the log2 fold change (barasertib) was inactive: -0.02, the log2 fold change [10] was inactive: 0.017 and the log2 fold change (volasertib) was inactive: -0.04. For the same target, the log2 fold change [11] was inactive: -0.009, the log2 fold change [12] was inactive: -0.197 and the log2 fold change [13] was inactive: 0.112. The log2 fold change (saracatinib) was inactive: -0.011 and the log2 fold change (sotrastaurin) was inactive: 0.086.

With GTF2F1 (UniProt P35269) the log2 fold change (ibrutinib) was inactive: -0.008, the log2 fold change [1] was inactive: 0 and the log2 fold change (ralimetinib) was inactive: -0.026. The log2 fold change [2] was inactive: -0.024, the log2 fold change [3] was inactive: -0.009 and the log2 fold change [4] was inactive: 0.014. The log2 fold change [5] was inactive: 0.004, the log2 fold change [6] was inactive: 0.01 and the log2 fold change [7] was inactive: -0.02. The log2 fold change [8] was inactive: -0.012, the log2 fold change (vemurafenib) was inactive: -0.025 and the log2 fold change [9] was inactive: 0.017. For the same target, the log2 fold change (barasertib) was inactive: -0.052, the log2 fold change [10] was inactive: 0.035 and the log2 fold change (volasertib) was inactive: 0.024. For the same target, the log2 fold change [11] was inactive: -0.005, the log2 fold change [12] was inactive: -0.145 and the log2 fold change [13] was inactive: 0.076. For the same target, the log2 fold change (saracatinib) was inactive: 0.014 and the log2 fold change (sotrastaurin) was inactive: -0.003.

GRM5 (UniProt P41594) was tested, and the log2 fold change (ibrutinib) was inactive: 0.175, the log2 fold change [1] was inactive: -0.029 and the log2 fold change (ralimetinib) was inactive: 0.102. The log2 fold change [2] was inactive: 0.039, the log2 fold change [3] was inactive: -0.246 and the log2 fold change [4] was inactive: -0.053. For the same target, the log2 fold change [5] was inactive: -0.201, the log2 fold change [7] was inactive: -0.019 and the log2 fold change [8] was inactive: -0.071. The log2 fold change [9] was inactive: -0.048, the log2 fold change (barasertib) was inactive: 0.21 and the log2 fold change [10] was inactive: 0.146. The log2 fold change (volasertib) was inactive: 0.105, the log2 fold change [11] was inactive: -0.206 and the log2 fold change (saracatinib) was inactive: -0.053.

With H2AFX (UniProt P16104) the log2 fold change (ibrutinib) was inactive: -0.046, the log2 fold change [1] was inactive: -0.028 and the log2 fold change (ralimetinib) was inactive: -0.05. For the same target, the log2 fold change [2] was inactive: -0.051, the log2 fold change [3] was inactive: 0.069 and the log2 fold change [4] was inactive: -0.009. For the same target, the log2 fold change [5] was inactive: 0.067, the log2 fold change [6] was inactive: 0.027 and the log2 fold change [7] was inactive: 0.007. For the same target, the log2 fold change [8] was inactive: -0.029, the log2 fold change (vemurafenib) was inactive: 0.008 and the log2 fold change [9] was inactive: -0.001. For the same target, the log2 fold change (barasertib) was inactive: -0.04, the log2 fold change [10] was inactive: 0.05 and the log2 fold change (volasertib) was inactive: -0.043. For the same target, the log2 fold change [11] was inactive: 0.029, the log2 fold change [12] was inactive: -0.017 and the log2 fold change [13] was inactive: 0.002. For the same target, the log2 fold change (saracatinib) was inactive: -0.065 and the log2 fold change (sotrastaurin) was inactive: -0.057.

With GTF3C3 (UniProt Q9Y5Q9) the log2 fold change (ibrutinib) was inactive: 0.033, the log2 fold change [1] was inactive: -0.001 and the log2 fold change (ralimetinib) was inactive: 0.027. The log2 fold change [2] was inactive: -0.005, the log2 fold change [3] was inactive: 0.02 and the log2 fold change [4] was inactive: -0.003. For the same target, the log2 fold change [5] was inactive: -0.112, the log2 fold change [6] was inactive: 0.014 and the log2 fold change [7] was inactive: 0.047. For the same target, the log2 fold change [8] was inactive: -0.007, the log2 fold change (vemurafenib) was inactive: 0.062 and the log2 fold change [9] was inactive: 0.06. For the same target, the log2 fold change (barasertib) was inactive: 0.01, the log2 fold change [10] was inactive: -0.088 and the log2 fold change (volasertib) was inactive: -0.014. The log2 fold change [11] was inactive: 0.003, the log2 fold change [12] was inactive: -0.158 and the log2 fold change [13] was inactive: 0.005. For the same target, the log2 fold change (saracatinib) was inactive: 0.049 and the log2 fold change (sotrastaurin) was inactive: -0.013.

In the case of HDGFL2 isoform 2 (UniProt Q7Z4V5), the log2 fold change (ibrutinib) is reported as inactive: -0.033, the log2 fold change [1] is reported as inactive: -0.002 and the log2 fold change (ralimetinib) is reported as inactive: -0.01. The log2 fold change [2] was inactive: -0.049, the log2 fold change [3] was inactive: 0.011 and the log2 fold change [4] was inactive: -0.015. The log2 fold change [5] was inactive: -0.026, the log2 fold change [6] was inactive: 0.022 and the log2 fold change [7] was inactive: 0.021. The log2 fold change [8] was inactive: -0.044, the log2 fold change (vemurafenib) was inactive: 0.016 and the log2 fold change [9] was inactive: -0.003. The log2 fold change (barasertib) was inactive: -0.01, the log2 fold change [10] was inactive: 0.064 and the log2 fold change (volasertib) was inactive: 0.052. For the same target, the log2 fold change [11] was inactive: -0.066, the log2 fold change [12] was active: -0.417 and the log2 fold change [13] was inactive: 0.196. For the same target, the log2 fold change (saracatinib) was inactive: -0.015 and the log2 fold change (sotrastaurin) was inactive: 0.038.

GRWD1 (UniProt Q9BQ67) was tested, and the log2 fold change (ibrutinib) was inactive: 0.03, the log2 fold change [1] was inactive: -0.028 and the log2 fold change (ralimetinib) was inactive: 0.025. For the same target, the log2 fold change [2] was inactive: -0.009, the log2 fold change [3] was inactive: 0.019 and the log2 fold change [4] was inactive: -0.011. The log2 fold change [5] was inactive: -0.042, the log2 fold change [6] was inactive: 0.011 and the log2 fold change [7] was inactive: 0.002. The log2 fold change [8] was inactive: -0.009, the log2 fold change (vemurafenib) was inactive: -0.013 and the log2 fold change [9] was inactive: 0. The log2 fold change (barasertib) was inactive: -0.028, the log2 fold change [10] was inactive: -0.006 and the log2 fold change (volasertib) was inactive: -0.02. For the same target, the log2 fold change [11] was inactive: -0.027, the log2 fold change [12] was inactive: -0.075 and the log2 fold change [13] was inactive: 0.017. The log2 fold change (saracatinib) was inactive: 0.001 and the log2 fold change (sotrastaurin) was inactive: 0.02.

With HDHD3 (UniProt Q9BSH5) the log2 fold change (ibrutinib) was inactive: 0.02, the log2 fold change [1] was inactive: 0.01 and the log2 fold change (ralimetinib) was inactive: 0.002. For the same target, the log2 fold change [2] was inactive: -0.039, the log2 fold change [3] was inactive: -0.05 and the log2 fold change [4] was inactive: -0.073. The log2 fold change [5] was inactive: 0.027, the log2 fold change [6] was inactive: 0.08 and the log2 fold change [7] was inactive: -0.042. For the same target, the log2 fold change [8] was inactive: 0.021, the log2 fold change (vemurafenib) was inactive: -0.038 and the log2 fold change [9] was inactive: 0.038. The log2 fold change (barasertib) was inactive: 0.137, the log2 fold change [10] was inactive: -0.002 and the log2 fold change (volasertib) was inactive: 0.025. The log2 fold change [11] was inactive: -0.043, the log2 fold change [12] was inactive: 0.009 and the log2 fold change [13] was inactive: -0.011. For the same target, the log2 fold change (saracatinib) was inactive: -0.032 and the log2 fold change (sotrastaurin) was inactive: 0.033.

With HDAC1 (UniProt Q13547) the log2 fold change (ibrutinib) was inactive: -0.026, the log2 fold change [1] was inactive: -0.001 and the log2 fold change (ralimetinib) was inactive: 0.031. The log2 fold change [2] was inactive: 0.01, the log2 fold change [3] was inactive: -0.001 and the log2 fold change [4] was inactive: 0.001. For the same target, the log2 fold change [5] was inactive: -0.008, the log2 fold change [6] was inactive: -0.022 and the log2 fold change [7] was inactive: 0.008. For the same target, the log2 fold change [8] was inactive: 0.011, the log2 fold change (vemurafenib) was inactive: 0.01 and the log2 fold change [9] was inactive: 0.022. For the same target, the log2 fold change (barasertib) was inactive: -0.001, the log2 fold change [10] was inactive: -0.004 and the log2 fold change (volasertib) was inactive: -0.019. For the same target, the log2 fold change [11] was inactive: 0.03, the log2 fold change [12] was inactive: -0.036 and the log2 fold change [13] was inactive: -0.001. For the same target, the log2 fold change (saracatinib) was inactive: 0.014 and the log2 fold change (sotrastaurin) was inactive: -0.011.
